# Experimental data from publication PMC7862700.
# Chains of the proteins cited; added tags and fusions are not shown. Lines headed by an entry give the natural chain unless they say otherwise; changes in a name come on top.
# UniProt Q9Y603: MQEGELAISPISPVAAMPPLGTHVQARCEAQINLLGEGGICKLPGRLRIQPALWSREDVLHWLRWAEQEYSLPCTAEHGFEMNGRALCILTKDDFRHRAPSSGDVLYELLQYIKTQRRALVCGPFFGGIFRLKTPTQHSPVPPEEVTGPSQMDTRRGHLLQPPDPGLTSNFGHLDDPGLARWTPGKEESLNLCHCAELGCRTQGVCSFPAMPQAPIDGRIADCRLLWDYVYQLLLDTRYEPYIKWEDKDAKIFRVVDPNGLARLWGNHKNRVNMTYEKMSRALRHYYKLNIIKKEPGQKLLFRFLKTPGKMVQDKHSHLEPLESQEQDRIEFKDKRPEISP
# UniProt P41212: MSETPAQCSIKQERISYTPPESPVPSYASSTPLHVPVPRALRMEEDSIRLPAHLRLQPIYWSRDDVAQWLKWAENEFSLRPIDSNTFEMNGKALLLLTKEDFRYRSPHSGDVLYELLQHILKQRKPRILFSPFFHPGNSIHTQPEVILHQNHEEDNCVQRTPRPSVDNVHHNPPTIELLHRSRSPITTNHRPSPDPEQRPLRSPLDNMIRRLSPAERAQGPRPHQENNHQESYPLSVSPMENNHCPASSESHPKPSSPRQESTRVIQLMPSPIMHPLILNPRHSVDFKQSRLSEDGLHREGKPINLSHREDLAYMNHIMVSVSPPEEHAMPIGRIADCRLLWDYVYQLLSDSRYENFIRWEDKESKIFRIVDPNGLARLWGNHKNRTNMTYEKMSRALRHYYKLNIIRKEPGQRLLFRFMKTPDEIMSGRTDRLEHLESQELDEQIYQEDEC
# The entries are a selection whose mix differs from that of the whole data set. At the low end of the ranking, values are background and their order means little.
# Target: T1, ELF3 (UniProt P78545)
# T1 sequence: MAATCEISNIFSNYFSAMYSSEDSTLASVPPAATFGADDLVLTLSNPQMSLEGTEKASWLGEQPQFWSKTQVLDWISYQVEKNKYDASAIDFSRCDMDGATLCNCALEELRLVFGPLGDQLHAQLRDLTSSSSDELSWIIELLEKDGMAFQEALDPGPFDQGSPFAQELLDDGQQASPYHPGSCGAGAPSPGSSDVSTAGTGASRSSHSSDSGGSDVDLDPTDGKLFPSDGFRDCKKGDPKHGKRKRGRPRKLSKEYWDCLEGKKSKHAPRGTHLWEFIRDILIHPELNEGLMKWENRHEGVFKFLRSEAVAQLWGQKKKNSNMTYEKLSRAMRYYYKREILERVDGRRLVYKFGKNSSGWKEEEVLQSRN
# Test: DAPPL (digital affinity profiling via proximity ligation, sequencing)
# Conditions: 10 mM Tris-HCl pH 7.5, 50 mM NaCl, 1 mM DTT, 4% glycerol, room temperature, 30 min; GST-TFs on glutathione beads, 16-mer random dsDNA library, 0.1% …; high values mean tight binding; double strand, one strand shown; scale: fold enrichment (6-mer frequency, TF over GST control)
row,Sequence,binding signal
1,GAAGGT,0.938
2,GTGTTG,0.9
3,AGGATA,0.987
4,AATGGA,1.05
5,GACTCG,0.836
6,TCAAGA,0.997
7,GACCAA,0.86
8,CACCGC,0.98
9,CGGACC,0.77
10,CACGGC,0.977
11,AGGAAT,0.915
12,GATAGT,0.794
13,ATTGTG,0.898
14,AGGCAC,0.726
15,GGGTAT,0.937
16,TCGAGA,0.711
17,TGTCAG,0.978
18,TAAGGC,0.99
19,AGAGAA,0.896
20,AGCTTG,0.823

row,Sequence,binding signal
1,GTGGAA,0.976
2,CCCGCG,0.887
3,GAGAAA,0.663
4,TCCAGT,0.608
5,AGCATC,0.988
6,ACAGAA,0.929
7,ACGCGT,0.992
8,AGCCAC,1.06
9,ATTCAC,1.27
10,GCCATC,0.874
11,AGAGAT,0.864
12,CCTAGG,0.969
13,CAAGCT,0.91
14,CCATAG,0.931
15,TCGAAA,0.921
16,AGCCTA,0.905
17,AGGATT,0.792
18,GTTGTC,0.797
19,GATCAC,1.04
20,GTTCAG,0.856

# Target: ETV7 (UniProt Q9Y603)
# Test: as above
# Conditions: 10 mM Tris-HCl pH 7.5, 50 mM NaCl, 1 mM DTT, 4% glycerol, room temperature, 30 min; GST-TFs on glutathione beads, 16-mer random dsDNA library, 0.1% …; high values mean tight binding; double strand, one strand shown; scale: fold enrichment (6-mer frequency, TF over GST control)
row,Sequence,binding signal
1,GAAGGT,0.977
2,GTGTTG,0.905
3,AGGATA,0.916
4,AATGGA,1.03
5,GACTCG,0.854
6,TCAAGA,0.903
7,GACCAA,0.858
8,CACCGC,0.978
9,CGGACC,0.766
10,CACGGC,0.976
11,AGGAAT,0.822
12,GATAGT,0.869
13,ATTGTG,0.972
14,AGGCAC,0.872
15,GGGTAT,1.02
16,TCGAGA,0.675
17,TGTCAG,0.963
18,TAAGGC,0.94
19,AGAGAA,0.857
20,AGCTTG,0.906

row,Sequence,binding signal
1,GTGGAA,0.919
2,CCCGCG,1.03
3,GAGAAA,0.792
4,TCCAGT,0.719
5,AGCATC,0.953
6,ACAGAA,0.996
7,ACGCGT,0.99
8,AGCCAC,0.915
9,ATTCAC,1.24
10,GCCATC,0.983
11,AGAGAT,0.931
12,CCTAGG,0.957
13,CAAGCT,0.992
14,CCATAG,0.835
15,TCGAAA,1.05
16,AGCCTA,1.13
17,AGGATT,0.878
18,GTTGTC,0.835
19,GATCAC,0.977
20,GTTCAG,0.916

# Target: ETV6 (UniProt P41212)
# Test: as above
# Conditions: 10 mM Tris-HCl pH 7.5, 50 mM NaCl, 1 mM DTT, 4% glycerol, room temperature, 30 min; GST-TFs on glutathione beads, 16-mer random dsDNA library, 0.1% …; high values mean tight binding; double strand, one strand shown; scale: fold enrichment (6-mer frequency, TF over GST control)
row,Sequence,binding signal
1,GAAGGT,0.874
2,GTGTTG,0.911
3,AGGATA,0.988
4,AATGGA,1.12
5,GACTCG,0.848
6,TCAAGA,0.83
7,GACCAA,0.872
8,CACCGC,0.995
9,CGGACC,0.817
10,CACGGC,1.05
11,AGGAAT,0.808
12,GATAGT,0.873
13,ATTGTG,0.911
14,AGGCAC,0.885
15,GGGTAT,0.886
16,TCGAGA,0.65
17,TGTCAG,0.863
18,TAAGGC,0.931
19,AGAGAA,0.828
20,AGCTTG,0.903

row,Sequence,binding signal
1,GTGGAA,0.937
2,CCCGCG,0.907
3,GAGAAA,0.744
4,TCCAGT,0.648
5,AGCATC,1.03
6,ACAGAA,0.904
7,ACGCGT,0.962
8,AGCCAC,0.926
9,ATTCAC,1.17
10,GCCATC,0.875
11,AGAGAT,0.859
12,CCTAGG,0.931
13,CAAGCT,0.972
14,CCATAG,0.933
15,TCGAAA,0.901
16,AGCCTA,0.969
17,AGGATT,0.989
18,GTTGTC,0.836
19,GATCAC,0.918
20,GTTCAG,0.867
